# Taken from: PubChem BioAssay AID1224827 (NIAID, 2016)
# Screen: 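Confirm genes whose knock-down changes LPS-driven TNF promoter activity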 (follow-up of hits)
# System: RAW264.7 G9 mouse macrophage reporter clone
# Knock-down reagent: single siRNA against mouse genes, 100 nM siRNA
# Timing: siRNA for 2 days, then LPS about 16 h
# Treatment: bacterial lipopolysaccharide (LPS), 10 ng/ml, cells fixed after overnight (about 16 h) stimulation
# Read-out: 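Imaged nuclear TNF reporter intensity, background removed, scaled per plate and to non-targeting control wells, as z-scores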
# Scale: TNF reporter z-score, mean and TNF reporter z-score: higher = stronger Tnf promoter reporter signal; gene median z, three same-vendor siRNAs: higher = stronger Tnf reporter signal for the gene
# Active means: 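An siRNA is called active when its mean z-score over replicates is at least +2 or at most -2; control wells get no call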
# The deposit covers about 3,800 reagents; shown is a part drawn at random. Of all reagents, about 2,200 (57%) were called active. 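Active means a strong reporter change in either direction; calls are per siRNA, not per gene; qiagen siRNAs gave weaker effects.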 Reagents against one gene are numbered here.
Gene,reagent,"TNF reporter z-score, mean","gene median z, three same-vendor siRNAs","TNF reporter z-score, repeat 1","TNF reporter z-score, repeat 2",call
Fads3 (fatty acid desaturase 3),1,-1.61,-2.56,-1.95,-1.27,inactive
Fads3 (fatty acid desaturase 3),2,-2.6,-2.56,-2.69,-2.52,active
Fads3 (fatty acid desaturase 3),3,-2.74,-2.56,-2.6,-2.87,active
Fads3 (fatty acid desaturase 3),4,5.83,-0.931,9.03,2.62,active
Fads3 (fatty acid desaturase 3),5,-0.931,-0.931,-0.645,-1.22,inactive
Fads3 (fatty acid desaturase 3),6,-2.14,-0.931,-1.33,-2.96,active
Zfp825 (zinc finger protein 825),1,1.33,-3.72,2.08,0.591,inactive
Zfp825 (zinc finger protein 825),2,-4.03,-3.72,-4.25,-3.81,active
Zfp825 (zinc finger protein 825),3,-4.57,-3.72,-3.63,-5.5,active
Zfp825 (zinc finger protein 825),4,3.36,0.65,4.89,1.83,active
Zfp825 (zinc finger protein 825),5,1.86,0.65,4.24,-0.528,inactive
Zfp825 (zinc finger protein 825),6,-2.55,0.65,-2.09,-3.02,active
"Fam168b (family with sequence similarity 168, member B)",1,-4.26,-4.64,-4.11,-4.42,active
"Fam168b (family with sequence similarity 168, member B)",2,-4.64,-4.64,-4.45,-4.84,active
"Fam168b (family with sequence similarity 168, member B)",3,-6.37,-4.64,-5.61,-7.14,active
Sqor (sulfide quinone oxidoreductase),1,-3.19,-3.85,-3.03,-3.35,active
Sqor (sulfide quinone oxidoreductase),2,-3.85,-3.85,-3.79,-3.91,active
Sqor (sulfide quinone oxidoreductase),3,-5.82,-3.85,-5.35,-6.3,active
Sqor (sulfide quinone oxidoreductase),4,1.45,-0.0348,3.04,-0.134,inactive
Sqor (sulfide quinone oxidoreductase),5,0.954,-0.0348,1.84,0.0645,inactive
Sqor (sulfide quinone oxidoreductase),6,-2.22,-0.0348,-1.63,-2.82,active
Arhgef1 (Rho guanine nucleotide exchange factor 1),1,-1.4,-3.23,-2.04,-0.748,inactive
Arhgef1 (Rho guanine nucleotide exchange factor 1),2,-2.99,-3.23,-1.57,-4.41,active
Arhgef1 (Rho guanine nucleotide exchange factor 1),3,-5.02,-3.23,-4.61,-5.43,active
Arhgef1 (Rho guanine nucleotide exchange factor 1),4,3.34,0.606,5.88,0.805,active
Arhgef1 (Rho guanine nucleotide exchange factor 1),5,0.275,0.606,0.905,-0.355,inactive
Arhgef1 (Rho guanine nucleotide exchange factor 1),6,-0.549,0.606,0.406,-1.5,inactive
Or5w20 (olfactory receptor family 5 subfamily W member 20),1,-3.21,-3.91,-4.52,-1.91,active
Or5w20 (olfactory receptor family 5 subfamily W member 20),2,-3.75,-3.91,-4.24,-3.26,active
Or5w20 (olfactory receptor family 5 subfamily W member 20),3,-3.91,-3.91,-3.95,-3.88,active
Or5w20 (olfactory receptor family 5 subfamily W member 20),4,2.4,-1.42,4.96,-0.161,active
Or5w20 (olfactory receptor family 5 subfamily W member 20),5,-1.42,-1.42,-1.44,-1.41,inactive
Or5w20 (olfactory receptor family 5 subfamily W member 20),6,-2.65,-1.42,-3.49,-1.81,active
Tgs1 (trimethylguanosine synthase 1),1,-2.5,-4.4,-3.25,-1.75,active
Tgs1 (trimethylguanosine synthase 1),2,-3.77,-4.4,-2.01,-5.54,active
Tgs1 (trimethylguanosine synthase 1),3,-5.78,-4.4,-5.62,-5.95,active
Tgs1 (trimethylguanosine synthase 1),4,6.07,1.66,9.64,2.51,active
Tgs1 (trimethylguanosine synthase 1),5,2.55,1.66,4.27,0.821,active
Tgs1 (trimethylguanosine synthase 1),6,-2.99,1.66,-3.8,-2.18,active
Map6 (microtubule-associated protein 6),1,-2.67,-3.25,-3.27,-2.07,active
Map6 (microtubule-associated protein 6),2,-3.05,-3.25,-3.23,-2.87,active
Map6 (microtubule-associated protein 6),3,-4.08,-3.25,-3.73,-4.44,active
Map6 (microtubule-associated protein 6),4,-0.612,-1.68,0.446,-1.67,inactive
Map6 (microtubule-associated protein 6),5,-0.978,-1.68,-0.275,-1.68,inactive
Map6 (microtubule-associated protein 6),6,-3.51,-1.68,-3.64,-3.39,active

Next part; the last 8 above are carried over.
Gene,reagent,"TNF reporter z-score, mean","gene median z, three same-vendor siRNAs","TNF reporter z-score, repeat 1","TNF reporter z-score, repeat 2",call
Tgs1 (trimethylguanosine synthase 1),5,2.55,1.66,4.27,0.821,active
Tgs1 (trimethylguanosine synthase 1),6,-2.99,1.66,-3.8,-2.18,active
Map6 (microtubule-associated protein 6),1,-2.67,-3.25,-3.27,-2.07,active
Map6 (microtubule-associated protein 6),2,-3.05,-3.25,-3.23,-2.87,active
Map6 (microtubule-associated protein 6),3,-4.08,-3.25,-3.73,-4.44,active
Map6 (microtubule-associated protein 6),4,-0.612,-1.68,0.446,-1.67,inactive
Map6 (microtubule-associated protein 6),5,-0.978,-1.68,-0.275,-1.68,inactive
Map6 (microtubule-associated protein 6),6,-3.51,-1.68,-3.64,-3.39,active
Ctnna1 (catenin alpha 1),1,0.469,-2.5,-0.718,1.66,inactive
Ctnna1 (catenin alpha 1),2,-2.75,-2.5,-4.13,-1.37,active
Ctnna1 (catenin alpha 1),3,-3.84,-2.5,-4.04,-3.64,active
Ctnna1 (catenin alpha 1),4,1.87,-0.532,2.79,0.945,inactive
Ctnna1 (catenin alpha 1),5,-0.532,-0.532,-0.329,-0.736,inactive
Ctnna1 (catenin alpha 1),6,-2.87,-0.532,-3.41,-2.34,active
Pawr (pro-apoptotic WT1 regulator),1,4.66,0.113,8.18,1.14,active
Pawr (pro-apoptotic WT1 regulator),2,0.772,0.113,2.46,-0.912,inactive
Pawr (pro-apoptotic WT1 regulator),3,-1.21,0.113,-1.14,-1.29,inactive
Cmss1 (cms small ribosomal subunit 1),1,0.332,-3.43,1.27,-0.605,inactive
Cmss1 (cms small ribosomal subunit 1),2,-3.69,-3.43,-3.87,-3.5,active
Cmss1 (cms small ribosomal subunit 1),3,-4.01,-3.43,-4.66,-3.36,active
Cmss1 (cms small ribosomal subunit 1),4,1.27,-0.104,2.15,0.38,inactive
Cmss1 (cms small ribosomal subunit 1),5,0.342,-0.104,1.27,-0.589,inactive
Cmss1 (cms small ribosomal subunit 1),6,-2.29,-0.104,-2.14,-2.44,active
Eif1 (eukaryotic translation initiation factor 1),1,-0.413,-1.62,0.262,-1.09,inactive
Eif1 (eukaryotic translation initiation factor 1),2,-1.39,-1.62,-2.15,-0.633,inactive
Eif1 (eukaryotic translation initiation factor 1),3,-4.45,-1.62,-4.94,-3.96,active
Eif1 (eukaryotic translation initiation factor 1),4,3.86,0.692,6.67,1.04,active
Eif1 (eukaryotic translation initiation factor 1),5,1.46,0.692,2.86,0.0513,inactive
Eif1 (eukaryotic translation initiation factor 1),6,-0.214,0.692,0.345,-0.773,inactive
Slc51a,1,0.741,-2.6,-0.657,2.14,inactive
Slc51a,2,-2.6,-2.6,-2.66,-2.55,active
Slc51a,3,-2.82,-2.6,-2.96,-2.68,active
Slc51a,4,3.81,0.573,6.97,0.641,active
Slc51a,5,3.48,0.573,7.38,-0.424,active
Slc51a,6,-0.00828,0.573,0.505,-0.521,inactive
Ripk2 (receptor (TNFRSF)-interacting serine-threonine kinase 2),1,3.93,-4.24,3.37,4.49,active
Ripk2 (receptor (TNFRSF)-interacting serine-threonine kinase 2),2,-4.24,-4.24,-3.78,-4.69,active
Ripk2 (receptor (TNFRSF)-interacting serine-threonine kinase 2),3,-4.93,-4.24,-5.14,-4.73,active
Ripk2 (receptor (TNFRSF)-interacting serine-threonine kinase 2),4,3.52,0.839,6.26,0.77,active
Ripk2 (receptor (TNFRSF)-interacting serine-threonine kinase 2),5,3.13,0.839,5.35,0.908,active
Ripk2 (receptor (TNFRSF)-interacting serine-threonine kinase 2),6,-1.74,0.839,-1.38,-2.1,inactive
